# From PubChem BioAssay (EPA / NIEHS)
# The chains behind the UniProt entries cited, without tags or fusion partners. Where a name states a change or a piece, a line headed by the entry shows the natural chain unless it says otherwise.
# UniProt P41143, whole entry, looked up: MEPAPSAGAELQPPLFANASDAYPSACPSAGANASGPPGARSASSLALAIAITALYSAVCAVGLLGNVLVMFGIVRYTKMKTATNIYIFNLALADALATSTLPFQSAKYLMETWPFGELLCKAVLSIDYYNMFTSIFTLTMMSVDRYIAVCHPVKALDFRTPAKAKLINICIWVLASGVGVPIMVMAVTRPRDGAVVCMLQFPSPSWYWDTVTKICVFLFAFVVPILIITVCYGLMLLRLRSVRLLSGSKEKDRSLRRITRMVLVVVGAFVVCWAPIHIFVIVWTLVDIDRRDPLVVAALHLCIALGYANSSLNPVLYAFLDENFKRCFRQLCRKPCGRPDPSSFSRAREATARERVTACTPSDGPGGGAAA
# UniProt P03372, whole entry, looked up: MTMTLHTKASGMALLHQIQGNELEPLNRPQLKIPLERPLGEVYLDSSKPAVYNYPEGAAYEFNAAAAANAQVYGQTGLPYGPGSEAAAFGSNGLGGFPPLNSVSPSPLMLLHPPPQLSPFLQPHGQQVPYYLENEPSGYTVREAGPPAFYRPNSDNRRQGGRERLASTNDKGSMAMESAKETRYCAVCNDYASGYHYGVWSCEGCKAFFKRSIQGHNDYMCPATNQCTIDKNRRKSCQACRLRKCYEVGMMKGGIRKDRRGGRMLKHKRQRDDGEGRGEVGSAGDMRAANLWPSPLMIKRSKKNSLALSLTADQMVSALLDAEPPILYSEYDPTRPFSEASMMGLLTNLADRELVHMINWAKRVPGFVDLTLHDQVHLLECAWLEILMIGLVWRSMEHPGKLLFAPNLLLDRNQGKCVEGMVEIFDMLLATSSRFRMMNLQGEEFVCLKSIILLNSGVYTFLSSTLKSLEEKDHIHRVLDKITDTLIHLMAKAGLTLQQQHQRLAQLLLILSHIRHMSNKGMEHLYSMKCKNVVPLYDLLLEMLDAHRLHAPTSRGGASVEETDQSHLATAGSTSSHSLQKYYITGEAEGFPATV
# UniProt P11362, whole entry, looked up: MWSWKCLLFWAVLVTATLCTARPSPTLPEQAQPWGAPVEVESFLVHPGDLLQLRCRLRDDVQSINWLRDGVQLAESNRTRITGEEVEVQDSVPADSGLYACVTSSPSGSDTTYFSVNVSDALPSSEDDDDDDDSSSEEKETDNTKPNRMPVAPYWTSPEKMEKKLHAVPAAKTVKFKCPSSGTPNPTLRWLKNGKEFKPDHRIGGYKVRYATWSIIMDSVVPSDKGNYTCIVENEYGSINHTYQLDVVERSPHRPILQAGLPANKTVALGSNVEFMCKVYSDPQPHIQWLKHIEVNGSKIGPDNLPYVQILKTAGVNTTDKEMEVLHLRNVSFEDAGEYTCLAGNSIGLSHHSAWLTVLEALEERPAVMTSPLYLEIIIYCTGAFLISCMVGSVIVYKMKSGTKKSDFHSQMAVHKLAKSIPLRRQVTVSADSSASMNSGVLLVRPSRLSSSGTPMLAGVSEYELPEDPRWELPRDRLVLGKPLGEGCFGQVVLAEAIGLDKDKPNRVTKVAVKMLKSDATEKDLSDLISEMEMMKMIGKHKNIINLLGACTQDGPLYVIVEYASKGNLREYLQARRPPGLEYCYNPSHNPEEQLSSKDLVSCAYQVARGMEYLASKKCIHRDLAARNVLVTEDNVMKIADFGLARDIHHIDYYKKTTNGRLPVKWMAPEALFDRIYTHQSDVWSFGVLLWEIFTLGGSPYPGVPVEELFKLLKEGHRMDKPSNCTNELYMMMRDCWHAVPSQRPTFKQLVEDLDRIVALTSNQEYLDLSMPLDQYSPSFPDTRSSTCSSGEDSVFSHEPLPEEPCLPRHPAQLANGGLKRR
# UniProt P16177, whole entry, looked up: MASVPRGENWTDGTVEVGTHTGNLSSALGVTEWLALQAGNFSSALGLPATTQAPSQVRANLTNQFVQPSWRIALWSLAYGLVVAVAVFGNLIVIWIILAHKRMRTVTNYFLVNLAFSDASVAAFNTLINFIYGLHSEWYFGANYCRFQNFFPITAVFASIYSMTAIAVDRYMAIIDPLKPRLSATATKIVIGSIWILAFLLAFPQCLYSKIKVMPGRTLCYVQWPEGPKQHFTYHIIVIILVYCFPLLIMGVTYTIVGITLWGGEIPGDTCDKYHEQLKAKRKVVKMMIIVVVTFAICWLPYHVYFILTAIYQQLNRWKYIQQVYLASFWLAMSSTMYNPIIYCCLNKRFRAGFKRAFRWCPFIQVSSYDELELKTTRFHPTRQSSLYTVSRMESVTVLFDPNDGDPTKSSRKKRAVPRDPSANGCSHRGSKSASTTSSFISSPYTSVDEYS
# UniProt Q9UBN7: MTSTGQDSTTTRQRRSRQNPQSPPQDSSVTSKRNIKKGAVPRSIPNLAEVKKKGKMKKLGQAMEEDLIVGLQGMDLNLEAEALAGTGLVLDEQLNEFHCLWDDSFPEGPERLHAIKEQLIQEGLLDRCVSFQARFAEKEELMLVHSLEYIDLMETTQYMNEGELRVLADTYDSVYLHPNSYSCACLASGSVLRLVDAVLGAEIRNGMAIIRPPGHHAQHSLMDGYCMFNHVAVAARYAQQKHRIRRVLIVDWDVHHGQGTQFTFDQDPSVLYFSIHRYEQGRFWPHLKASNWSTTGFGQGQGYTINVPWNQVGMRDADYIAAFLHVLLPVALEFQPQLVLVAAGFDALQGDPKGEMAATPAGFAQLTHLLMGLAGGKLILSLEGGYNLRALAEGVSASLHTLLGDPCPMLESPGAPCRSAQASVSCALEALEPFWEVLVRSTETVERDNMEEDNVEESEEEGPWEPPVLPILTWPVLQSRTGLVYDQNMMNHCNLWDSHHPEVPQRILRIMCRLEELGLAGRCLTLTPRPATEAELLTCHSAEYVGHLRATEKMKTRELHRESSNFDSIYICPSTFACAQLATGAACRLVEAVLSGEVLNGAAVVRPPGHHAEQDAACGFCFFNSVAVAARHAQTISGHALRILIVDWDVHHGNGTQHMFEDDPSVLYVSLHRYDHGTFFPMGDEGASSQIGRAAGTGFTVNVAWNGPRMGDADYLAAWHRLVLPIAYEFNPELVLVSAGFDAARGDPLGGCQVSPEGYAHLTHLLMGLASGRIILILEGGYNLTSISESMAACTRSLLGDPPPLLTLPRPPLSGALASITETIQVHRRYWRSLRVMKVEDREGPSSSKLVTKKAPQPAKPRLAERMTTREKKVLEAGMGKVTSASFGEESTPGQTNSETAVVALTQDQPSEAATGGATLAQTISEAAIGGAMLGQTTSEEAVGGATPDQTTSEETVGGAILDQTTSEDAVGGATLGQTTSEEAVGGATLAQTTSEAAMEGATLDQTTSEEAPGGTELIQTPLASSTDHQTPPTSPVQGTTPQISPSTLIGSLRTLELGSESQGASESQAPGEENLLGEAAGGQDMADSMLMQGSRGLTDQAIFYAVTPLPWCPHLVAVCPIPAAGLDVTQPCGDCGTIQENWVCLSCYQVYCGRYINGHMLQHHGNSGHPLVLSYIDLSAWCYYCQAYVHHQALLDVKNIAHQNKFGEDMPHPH
# UniProt Q9QYN8: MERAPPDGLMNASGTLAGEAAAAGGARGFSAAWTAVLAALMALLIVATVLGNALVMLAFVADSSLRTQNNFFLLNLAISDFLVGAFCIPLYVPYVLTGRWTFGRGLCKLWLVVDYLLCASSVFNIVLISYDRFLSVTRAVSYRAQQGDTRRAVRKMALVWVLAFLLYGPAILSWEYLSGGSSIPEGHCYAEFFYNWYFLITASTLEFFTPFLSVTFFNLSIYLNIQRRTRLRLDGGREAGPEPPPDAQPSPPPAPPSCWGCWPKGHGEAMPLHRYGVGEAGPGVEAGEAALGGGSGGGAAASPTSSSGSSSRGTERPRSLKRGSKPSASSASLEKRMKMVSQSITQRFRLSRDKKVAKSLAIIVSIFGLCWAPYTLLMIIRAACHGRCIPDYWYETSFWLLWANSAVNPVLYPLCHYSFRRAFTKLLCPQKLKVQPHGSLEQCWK
# UniProt P10275: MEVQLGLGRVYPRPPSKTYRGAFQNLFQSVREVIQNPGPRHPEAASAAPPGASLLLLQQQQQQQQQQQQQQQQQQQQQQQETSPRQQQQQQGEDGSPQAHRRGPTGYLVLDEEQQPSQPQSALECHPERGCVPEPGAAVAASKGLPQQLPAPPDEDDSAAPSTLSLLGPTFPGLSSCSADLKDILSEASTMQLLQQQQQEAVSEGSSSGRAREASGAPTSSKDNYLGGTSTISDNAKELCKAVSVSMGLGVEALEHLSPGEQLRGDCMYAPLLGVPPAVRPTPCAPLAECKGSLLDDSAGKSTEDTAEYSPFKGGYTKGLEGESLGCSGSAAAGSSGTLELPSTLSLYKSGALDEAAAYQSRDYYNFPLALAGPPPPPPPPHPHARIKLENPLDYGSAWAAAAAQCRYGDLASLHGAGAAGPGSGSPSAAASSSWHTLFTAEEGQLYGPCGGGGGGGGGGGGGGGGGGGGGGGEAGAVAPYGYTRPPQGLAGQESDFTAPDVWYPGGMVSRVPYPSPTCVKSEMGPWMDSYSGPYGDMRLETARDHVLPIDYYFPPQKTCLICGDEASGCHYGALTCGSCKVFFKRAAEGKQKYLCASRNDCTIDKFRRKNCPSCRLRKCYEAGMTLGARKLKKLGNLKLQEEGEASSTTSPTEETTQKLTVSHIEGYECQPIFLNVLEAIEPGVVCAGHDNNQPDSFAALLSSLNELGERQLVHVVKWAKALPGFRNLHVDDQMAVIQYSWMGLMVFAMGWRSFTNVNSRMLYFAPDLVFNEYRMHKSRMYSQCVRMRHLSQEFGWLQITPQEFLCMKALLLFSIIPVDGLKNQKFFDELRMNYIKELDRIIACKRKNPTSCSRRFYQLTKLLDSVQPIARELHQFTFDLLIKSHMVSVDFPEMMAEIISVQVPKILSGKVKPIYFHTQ
# UniProt O14965: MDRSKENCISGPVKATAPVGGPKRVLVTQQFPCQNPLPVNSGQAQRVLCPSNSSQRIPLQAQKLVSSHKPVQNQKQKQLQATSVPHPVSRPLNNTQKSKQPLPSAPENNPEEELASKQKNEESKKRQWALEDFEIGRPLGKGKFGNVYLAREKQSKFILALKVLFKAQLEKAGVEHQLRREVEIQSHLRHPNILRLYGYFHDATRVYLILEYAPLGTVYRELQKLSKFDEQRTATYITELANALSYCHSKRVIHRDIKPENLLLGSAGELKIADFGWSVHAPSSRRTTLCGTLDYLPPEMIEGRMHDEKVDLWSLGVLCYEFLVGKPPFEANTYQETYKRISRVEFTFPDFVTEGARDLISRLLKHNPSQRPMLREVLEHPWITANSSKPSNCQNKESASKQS
# UniProt P33535, whole entry, looked up: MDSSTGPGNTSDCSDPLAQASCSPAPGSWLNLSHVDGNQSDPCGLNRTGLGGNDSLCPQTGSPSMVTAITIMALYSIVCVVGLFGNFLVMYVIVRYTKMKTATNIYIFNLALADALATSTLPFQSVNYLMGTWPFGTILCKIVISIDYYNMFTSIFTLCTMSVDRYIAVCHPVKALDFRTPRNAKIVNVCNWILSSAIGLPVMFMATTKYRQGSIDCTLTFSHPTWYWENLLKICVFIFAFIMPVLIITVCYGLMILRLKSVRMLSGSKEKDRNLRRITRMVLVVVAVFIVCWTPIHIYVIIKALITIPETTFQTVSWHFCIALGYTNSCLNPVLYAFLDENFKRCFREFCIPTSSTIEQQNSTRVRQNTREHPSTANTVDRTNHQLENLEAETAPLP
# UniProt P31645, whole entry, looked up: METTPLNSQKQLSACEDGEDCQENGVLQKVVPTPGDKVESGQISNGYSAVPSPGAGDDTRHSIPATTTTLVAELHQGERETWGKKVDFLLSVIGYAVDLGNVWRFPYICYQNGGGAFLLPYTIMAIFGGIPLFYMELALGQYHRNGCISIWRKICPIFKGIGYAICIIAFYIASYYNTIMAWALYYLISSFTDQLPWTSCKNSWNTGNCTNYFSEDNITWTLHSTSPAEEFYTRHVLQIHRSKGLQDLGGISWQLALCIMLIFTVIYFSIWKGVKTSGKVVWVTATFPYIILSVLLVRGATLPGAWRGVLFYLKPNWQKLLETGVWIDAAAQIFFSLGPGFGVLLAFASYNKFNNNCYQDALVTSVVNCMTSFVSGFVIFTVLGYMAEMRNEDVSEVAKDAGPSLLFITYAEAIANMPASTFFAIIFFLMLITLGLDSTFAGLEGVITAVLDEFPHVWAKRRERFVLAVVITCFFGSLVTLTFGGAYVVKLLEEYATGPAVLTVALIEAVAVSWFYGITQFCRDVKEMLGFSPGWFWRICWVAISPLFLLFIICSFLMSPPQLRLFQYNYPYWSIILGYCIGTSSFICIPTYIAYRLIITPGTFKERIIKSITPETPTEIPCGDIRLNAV
# This list was built around the results that the source calls inconclusive (neither active nor inactive); the mix of calls is not that of the screen. For some assays here: A potency beside an inconclusive call is a rough fit, not a confirmed value. Calls of active or inactive are those of the source. Rule for the calls: active = hit-call score of the fitted dose curve at least 0.9, where 1 is the maximum; inconclusive = response in the unintended direction; inactive = score below 0.9.
# Experiments:
# [1] = system: SRY-box transcription factor 2 (SOX2) Protein Expression, Deisenroth Lab, SOX2 (gene 6657); test: CCTE_Deisenroth_DEVTOX-GLR_Endo_SOX2: CCTE's DevTox GLR-Endo Assay Evaluation of SRY-box transcription factor 2 (SOX2) Protein Expression, Deisenroth Lab (AID 2284412)
# Outline: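 RUES2-GLR human pluripotent cells were seeded 24 h, then differentiated 48 h with two chemical exposures 24 h apart. Cells were fixed, nuclei stained and imaged by high-content microscopy. Endpoint is %SOX2+ cells over cell count, minus 0.2% DMSO control; 10-point series 1 nM–200 uM.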
# [2] = biological target: human CYP2J2, CYP2J2 (gene 1573) (UniProt P51589); test: NVS_ADME_hCYP2J2: NovaScreen (NVS) CYP450-related Enzyme Activity (ADME) Assay for human CYP2J2 (AID 2283106)
# Outline: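 Cell-free assay of recombinant CYP2J2 with a fluorogenic substrate, read 1 h after dosing; loss of signal versus acetonitrile. Primary screen at 10 uM in duplicate, then concentration-response up to 20 uM for chemicals passing threshold (e.g., 30% inhibition).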
# [3] = biological target: human Opioid Receptor Delta 1 (Opiate D1), OPRD1 (gene 4985) (UniProt P41143); test: NVS_GPCR_hOpiate_D1: NovaScreen (NVS) G Protein-Coupled Receptor Assay for human Opioid Receptor Delta 1 (Opiate D1) (AID 2283280)
# Outline: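 Radioligand displacement on membranes from CHO cells expressing the receptor, read by filter scintillation counting 1 h after dosing. Duplicate single-point screen at 25 uM, then concentration series for actives; loss of signal versus DMSO.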
# [4] = biological target: Estrogen receptor (Homo sapiens) (UniProt P03372); test: ATG_hERa_XSP1: Attagene TRANS-FACTORIAL Multi-Species (XSP1) HepG2 Assay for human Estrogen Receptor (ESR1) (AID 2283780)
# Outline: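 HepG2 cells transiently transfected with GAL4-UAS reporter units and chimeric NR-Gal4 constructs; 24 h after dosing, reporter mRNA quantified by RT-PCR and capillary electrophoresis. Medium contained 3 nM 6-alpha-fluorotestosterone; activity fitted as gain-of-signal versus DMSO.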
# [5] = system: rat Norepinephrine Transporter (NET), gene 83511; test: NVS_TR_rNET: NovaScreen (NVS) Transporter Assay for rat Norepinephrine Transporter (NET) (AID 2283373)
# Outline: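 Rat forebrain membranes; radioligand binding measured by filter-based scintillation counting 1 hour after dosing. Loss of specific binding versus DMSO baseline scored; primary screen in duplicate at 25 uM, actives followed up in concentration series.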
# [6] = biological target: human Fibroblast Growth Factor Receptor 1 (FGFR1), FGFR1 (gene 2260) (UniProt P11362); test: NVS_ENZ_hFGFR1: NovaScreen (NVS) Enzymatic Assay for human Fibroblast Growth Factor Receptor 1 (FGFR1) (AID 2283159);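 note: hits lower the signal so potencies describe inhibitors of the kinase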
# Outline: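 Cell-free recombinant kinase with fluorescent substrate, product separated by electrophoretic mobility shift; read 1 hour after dosing, loss of signal relative to DMSO. Initial screen in duplicate at 25 uM, actives followed in concentration series.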
# [7] = biological target: rat Neurokinin-3 Receptor (NK3), Tacr3 (gene 24808) (UniProt P16177); test: NVS_GPCR_rNK3: NovaScreen (NVS) G Protein-Coupled Receptor Assay for rat Neurokinin-3 Receptor (NK3) (AID 2283310)
# Outline: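 Rat cortical membranes; radioligand binding with filtration and scintillation counting, 2 h after dosing. Primary screen in duplicate at 25 uM, then concentration-response up to 50 uM; loss of binding signal relative to DMSO.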
# [8] = biological target: Protein deacetylase HDAC6 (Homo sapiens) (UniProt Q9UBN7); test: NVS_ENZ_hHDAC6: NovaScreen (NVS) Enzymatic Assay for human Histone Deacetylase 6 (HDAC6) (AID 2283164)
# Outline: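 Recombinant human HDAC6 with fluorescent substrate, 1 h; product separated from substrate by electrophoretic mobility shift. Primary screen in duplicate at 25 uM; actives retested singly in concentration-response up to 50 uM, fitted relative to DMSO.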
# [9] = biological target: human Sirtuin 1 (SIRT1), SIRT1 (gene 23411) (UniProt Q96EB6); test: NVS_ENZ_hSIRT1: NovaScreen (NVS) Enzymatic Assay for human Sirtuin 1 (SIRT1) (AID 2283219)
# Outline: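 Cell-free recombinant SIRT1 with a fluorescent substrate; substrate and product separated by electrophoretic mobility shift and read by fluorescence intensity, 1 h after dosing. Primary screen at 25 uM in duplicate; hits re-run in concentration-response up to 50 uM, relative to DMSO.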
# [10] = biological target: rat Histamine Receptor (H3), Hrh3 (gene 85268) (UniProt Q9QYN8); test: NVS_GPCR_rH3: NovaScreen (NVS) G Protein-Coupled Receptor Assay for rat Histamine Receptor (H3) (AID 2283303)
# Outline: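 Rat forebrain membranes incubated 1 h with compound; radioligand displacement measured by filter-based scintillation counting. Single-concentration duplicates at 25 µM, then concentration-response up to 50 µM, relative to DMSO.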
# [11] = biological target: Androgen Receptor/SRC-1 Co-activator, AR (gene 367) (UniProt P10275); test: OT_AR_ARSRC1_0480: Odyssey Thera (OT) 8-hour HEK293T Protein-Complementation Assay for Androgen Receptor/SRC-1 Co-activator (AID 2283354);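 note: hits raise the complementation signal above DMSO so AC50 marks enhancers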
# Outline: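 HEK293T cells stably expressing AR and SRC-1 fused to split Venus YFP fragments via (Gly4Ser)2 linkers were read 8 h after compound dosing. Complementation was imaged at 488 and 635nm, and nuclear/cytoplasmic fluorescence ratio (488nm) was taken over ≥400 cells; gain-of-signal versus DMSO.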
# [12] = biological target: Estrogen receptor (Homo sapiens) (UniProt P03372); test: ATG_hERa_XSP2: Attagene TRANS-FACTORIAL Multi-Species (XSP2) HepG2 Assay for human Estrogen Receptor (ERa) (AID 2283827)
# Outline: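 HepG2 cells transiently transfected with multiplexed GAL4-UAS reporters driven by chimeric receptor-Gal4 proteins, dosed 24 h with 3 nM 6-alpha-fluorotestosterone and 1.5 nM norgestrel present. Reporter mRNA by RT-PCR and capillary electrophoresis; gain-of-signal fit versus DMSO.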
# [13] = TOX21_PR_BLA_Followup_Antagonist_viability: Viability Assessment in the Tox21 HEK293 Progesterone Receptor (PR) Antagonism Beta-lactamase Follow-Up Assay (AID 2283936);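 note: hits lower the luminescence signal meaning cytotoxicity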
# Outline: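 PR-UAS-bla HEK293T cells (3,000/well, 2% charcoal-stripped FBS) given compound plus R5020 agonist, 16 h at 37C. CellTiter-Glo added after bla read, 30 min at room temperature; luminescence loss indicates cytotoxicity.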
# [14] = TOX21_TRB_BLA_Antagonist_Followup_viability: Viability Assessment in the Tox21 Thyroid Hormone Receptor beta Antagonism Beta-lactamase (BLA) Follow-Up Assay (AID 2283961)
# Outline: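 ATP-based CellTiter-Glo luminescence (30 min, room temperature) run in the same wells as the TRβ-bla readout. Cells: GeneBLAzer HEK293T expressing GAL4-TRβ LBD, exposed 18 h at 37C to compounds at 11 concentrations in triplicate, stripped-serum medium.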
# [15] = biological target: human MET Proto-Oncogene, Receptor Tyrosine Kinase (MET), MET (gene 4233) (UniProt P08581); test: NVS_ENZ_hMet: NovaScreen (NVS) Enzymatic Assay for human MET Proto-Oncogene, Receptor Tyrosine Kinase (MET) (AID 2283180)
# Outline: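 Cell-free MET kinase assay using recombinant protein and fluorescent substrate, with mobility-shift separation; read 1 h after dosing. Primary duplicate at 25 uM; actives in singleton concentration-response to 50 uM maximum. Signal loss versus DMSO.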
# [16] = biological target: human Aurora Kinase A - serine/threonine-protein Kinase 6 (AurA), AURKA (gene 6790) (UniProt O14965); test: NVS_ENZ_hAurA: NovaScreen (NVS) Enzymatic Assay for human Aurora Kinase A - serine/threonine-protein Kinase 6 (AurA) (AID 2283142)
# Outline: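 Cell-free enzymatic assay with human Aurora A, 1 hour after dosing. Fluorescent substrate turnover detected after electrophoretic mobility shift separation of substrate and product. Screened at 25 uM, actives retested in concentration-response up to 50 uM.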
# [17] = biological target: rat Opioid Receptor, Non-selective Sodium (Na+) Binding, Oprm1 (gene 25601) (UniProt P33535); test: NVS_GPCR_rOpiate_NonSelectiveNa: NovaScreen (NVS) G Protein-Coupled Receptor Assay for rat Opioid Receptor, Non-selective Sodium (Na+) Binding (AID 2283311)
# Outline: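 Rat forebrain membranes, radioligand displacement with filter scintillation counting, 1.5 h incubation. Screened in duplicate at 25 µM; hits then run in concentration-response up to 50 µM; loss of binding fitted versus DMSO.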
# [18] = biological target: human Serotonin Transporter (SERT), SLC6A4 (gene 6532) (UniProt P31645); test: NVS_TR_hSERT: NovaScreen (NVS) Transporter Assay for human Serotonin Transporter (SERT) (AID 2283372)
# Outline: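 Radioligand binding to native SERT in human platelet membranes, read by filter-based scintillation counting 1 h after dosing. Primary screen in duplicate at 25 uM; actives followed up in concentration series; loss of signal versus DMSO baseline.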
# [19] = biological target: human Protein Tyrosine Phosphatase Non-receptor Type 1 (PTPN1), PTPN1 (gene 5770) (UniProt P18031); test: NVS_ENZ_hPTPN1: NovaScreen (NVS) Enzymatic Assay for human Protein Tyrosine Phosphatase Non-receptor Type 1 (PTPN1) (AID 2283201)
# Outline: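 Cell-free fluorogenic-substrate activity assay on recombinant enzyme, read 1.33 h after dosing by fluorescence and electrophoretic mobility shift; loss of signal vs DMSO baseline. Primary screen in duplicate at 25 uM, hits then run in concentration-response up to 50 uM.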
# [20] = ATG_M_06_XSP1: Attagene TRANS-FACTORIAL Multi-Species (XSP1) HepG2 Assay for M06 Transcription Factor (Internal Marker) (AID 2283790)
# Outline: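 Transfected HepG2 multi-reporter system treated 24 h in the presence of 3 nM 6-alpha-fluorotestosterone. The M06 internal marker transcript was quantified by RT-PCR with capillary electrophoresis as a background control, and gain of signal was scored versus DMSO.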
compound,measurement,setting,value
C=CC(N)=O,outcome,[1],inactive
CCOP(=S)(OCC)SCn1c(=O)oc2cc(Cl)ccc21,outcome,[2],inactive
same,outcome,[3],inactive
same,AC50,[4],inconclusive: 182 µM
CCS(=O)(=O)c1cccnc1S(=O)(=O)NC(=O)Nc1nc(OC)cc(OC)n1,AC50,[5],inconclusive: 0.0762 µM
CCCCOCN(C(=O)CCl)c1c(CC)cccc1CC,AC50,[6],inconclusive: 25 µM
Cc1nn(-c2cc(NS(C)(=O)=O)c(Cl)cc2Cl)c(=O)n1C(F)F,AC50,[7],inconclusive: 0.123 µM
CS/C(C)=N/OC(=O)N(C)SN(C)C(=O)O/N=C(\C)SC,outcome,[8],inactive
same,AC50,[9],active: 6.69 µM
same,AC50,[10],active: 2 µM
same,AC50,[11],active: 72.2 µM
COC(=O)N(OC)c1ccccc1COc1ccn(-c2ccc(Cl)cc2)n1,AC50,[12],active: 2.64 µM
same,outcome,[13],inactive
same,AC50,[14],active: 14.9 µM
CN(C)c1ccccc1,AC50,[15],inconclusive: 25.9 µM
ClC1=C(Cl)C2(Cl)C3C(Cl)C(Cl)CC3C1(Cl)C2(Cl)Cl (stereo not given),AC50,[16],inconclusive: 25 µM
same,AC50,[17],inconclusive: 46.6 µM
same,outcome,[18],inactive
Clc1cccc(C(Cl)(Cl)Cl)n1,AC50,[19],inconclusive: 25 µM
CC(C)(c1cc(Cl)c(O)c(Cl)c1)c1cc(Cl)c(O)c(Cl)c1,AC50,[20],inconclusive: 100 µM

# Some of the entries above in a different format.
compound	measurement	setting	value
CS/C(C)=N/OC(=O)N(C)SN(C)C(=O)O/N=C(\C)SC	AC50	[9]	active: 6.69 µM
same	AC50	[10]	active: 2 µM
COC(=O)N(OC)c1ccccc1COc1ccn(-c2ccc(Cl)cc2)n1	AC50	[12]	active: 2.64 µM
same	outcome	[13]	inactive
